Results deposited as PubChem BioAssay AID1159578 (Peter MacCallum Cancer Centre, 2015).

Aim: 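Genome-wide hunt for genes controlling movement of lymphatic endothelial cells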 (primary screen)
Cells: human lymphatic endothelial cells
Knock-down reagent: siRNA pool against human genes, 40 nM
Time to read-out: 48 h after transfection
Measured: 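Cells stained with dye and imaged after a scratch; covered wound area and nuclei counted, duplicates averaged, migration set against mock wells and turned into a robust z-score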
Scale: migration robust z-score: higher = faster migration into the scratch; migration relative to mock: higher = more scratch area covered than mock; nuclei per well: higher = more cells in the well
Rule for the call: 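Pools averaging fewer than 3300 nuclei are never called; remaining pools count as changed when migration robust z lies outside -2 to 2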
Meaning of the calls: active = migration changed; inactive = no migration change, or too few cells
The whole screen tested about 18,000 reagents; below is an unselected part. About 1,030 of them (5.7%) were called active. 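Inactive calls also include pools with fewer than 3300 nuclei, whose migration was not assessed.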 Raw values vary from plate to plate and are shown uncorrected. Unmarked entries are inactive. No sequences are given here.

no.	gene knocked down	migration robust z-score	migration class with cell-count check	migration relative to mock	nuclei per well, duplicate mean
1	TPT1P8 (GeneID 59347)	1.96	migration z between -2 and 2; enough cells	1.39	6740
2	LDLRAP1 (GeneID 26119)	1.03	migration z between -2 and 2; enough cells	1	6242
3	CNTLN (GeneID 54875)	0.74	migration z between -2 and 2; enough cells	1.07	6315
4	SAA4 (GeneID 6291)	0.7	migration z between -2 and 2; enough cells	1.06	7420
5	DNAJC4 (GeneID 3338)	-0.78	migration z between -2 and 2; enough cells	0.68	5787
6	FBXL19 (GeneID 54620)	-0.52	migration z between -2 and 2; enough cells	0.7	5444
7	MFSD6L (GeneID 162387)	0.44	migration z between -2 and 2; enough cells	1	5720
8	DPPA5 (GeneID 340168)	0.65	migration z between -2 and 2; enough cells	1.05	6390
9	AWAT1 (GeneID 158833)	-0.28	migration z between -2 and 2; enough cells	0.82	5316
10	SEMA4B (GeneID 10509)	-3.07	under 3300 nuclei; migration not judged	0.09	2596
11	XKR9 (GeneID 389668)	-0.38	migration z between -2 and 2; enough cells	0.78	5266
12	C8A (GeneID 731)	-0.59	migration z between -2 and 2; enough cells	0.72	4216
13	TPD52L3 (GeneID 89882)	0	migration z between -2 and 2; enough cells	0.8	4297
14	ANKRD53 (GeneID 79998)	0.32	migration z between -2 and 2; enough cells	0.97	5078
15	HMGB1P1 (GeneID 10357)	1.97	migration z between -2 and 2; enough cells	1.19	5138
16	HOXB2 (GeneID 3212)	1.04	migration z between -2 and 2; enough cells	1.01	6900
17	PRR15L (GeneID 79170)	0.96	migration z between -2 and 2; enough cells	1.13	5648
18	PPARA (GeneID 5465)	0.73	migration z between -2 and 2; enough cells	0.94	5682
19	LIN7B (GeneID 64130)	0.4	migration z between -2 and 2; enough cells	0.99	5598
20	TOMM20L (GeneID 387990)	0.43	migration z between -2 and 2; enough cells	1	5114
21	P2RY2 (GeneID 5029)	-1.17	migration z between -2 and 2; enough cells	0.58	5212
22	ALDH3B1 (GeneID 221)	-0.93	migration z between -2 and 2; enough cells	0.62	3821
23	NUCB2 (GeneID 4925)	-0.64	migration z between -2 and 2; enough cells	0.72	3904
24	AGXT2 (GeneID 64902)	-0.86	migration z between -2 and 2; enough cells	0.64	5970
25	CXCL16 (GeneID 58191)	-0.99	migration z between -2 and 2; enough cells	0.62	4960
26	CHAC1 (GeneID 79094)	0.66	migration z between -2 and 2; enough cells	1.06	4299
27	MASP1 (GeneID 5648)	-0.88	migration z between -2 and 2; enough cells	0.64	5260
28	MYOF (GeneID 26509)	-1.88	migration z between -2 and 2; enough cells	0.4	4181
29	PRKCG (GeneID 5582)	2.21 (active)	migration z above 2; enough cells	1.23	4885
30	SYT6 (GeneID 148281)	0.16	migration z between -2 and 2; enough cells	0.92	5796
31	NAB1 (GeneID 4664)	-0.28	migration z between -2 and 2; enough cells	0.82	5208
32	SIGLEC9 (GeneID 27180)	0.38	migration z between -2 and 2; enough cells	0.98	6266
33	EMP2 (GeneID 2013)	-0.5	migration z between -2 and 2; enough cells	0.76	5832
34	CD2BP2 (GeneID 10421)	-0.64	migration z between -2 and 2; enough cells	0.72	4540
35	KCNK10 (GeneID 54207)	-0.1	migration z between -2 and 2; enough cells	0.78	4191
36	BBS9 (GeneID 27241)	0.21	migration z between -2 and 2; enough cells	0.93	5340
37	TSGA13 (GeneID 114960)	0.56	migration z between -2 and 2; enough cells	1.03	6562
38	TAS2R31 (GeneID 259290)	-0.29	migration z between -2 and 2; enough cells	0.82	6358
39	BMP2 (GeneID 650)	-1.25	migration z between -2 and 2; enough cells	0.56	4374
40	NKX2-1 (GeneID 7080)	-1.84	migration z between -2 and 2; enough cells	0.45	5619
41	UBXN6 (GeneID 80700)	1.3	migration z between -2 and 2; enough cells	1.06	4302
42	STMN3 (GeneID 50861)	-0.62	migration z between -2 and 2; enough cells	0.72	4829
43	DNAH10 (GeneID 196385)	-0.8	migration z between -2 and 2; enough cells	0.68	5840
44	F9 (GeneID 2158)	-0.52	migration z between -2 and 2; enough cells	0.7	5174
45	CDCA5 (GeneID 113130)	-1.6	under 3300 nuclei; migration not judged	0.48	2924
46	KRTAP19-1 (GeneID 337882)	-0.34	migration z between -2 and 2; enough cells	0.8	5896
47	NQO2 (GeneID 4835)	0.05	migration z between -2 and 2; enough cells	0.82	4622
48	PDZD7 (GeneID 79955)	-0.95	migration z between -2 and 2; enough cells	0.64	6168
49	HHIPL2 (GeneID 79802)	0.57	migration z between -2 and 2; enough cells	1.03	6603
50	GRAMD1A (GeneID 57655)	2.49 (active)	migration z above 2; enough cells	1.53	4852
51	SIGIRR (GeneID 59307)	1.16	migration z between -2 and 2; enough cells	1.19	5322
52	CHST9 (GeneID 83539)	-2.8	under 3300 nuclei; migration not judged	0.26	1911
53	MRGPRX4 (GeneID 117196)	-0.31	migration z between -2 and 2; enough cells	0.74	5140
54	OR2M3 (GeneID 127062)	0.12	migration z between -2 and 2; enough cells	0.92	5175
55	GABRB1 (GeneID 2560)	-1.27	migration z between -2 and 2; enough cells	0.56	4180
56	KRTAP10-9 (GeneID 386676)	-2.26 (active)	migration z below -2; enough cells	0.3	3792
57	H3C8 (GeneID 8355)	-0.99	migration z between -2 and 2; enough cells	0.63	5530
